In this test the target is T1, 3×Flag-MED26 (UniProt O95402).
T1 sequence: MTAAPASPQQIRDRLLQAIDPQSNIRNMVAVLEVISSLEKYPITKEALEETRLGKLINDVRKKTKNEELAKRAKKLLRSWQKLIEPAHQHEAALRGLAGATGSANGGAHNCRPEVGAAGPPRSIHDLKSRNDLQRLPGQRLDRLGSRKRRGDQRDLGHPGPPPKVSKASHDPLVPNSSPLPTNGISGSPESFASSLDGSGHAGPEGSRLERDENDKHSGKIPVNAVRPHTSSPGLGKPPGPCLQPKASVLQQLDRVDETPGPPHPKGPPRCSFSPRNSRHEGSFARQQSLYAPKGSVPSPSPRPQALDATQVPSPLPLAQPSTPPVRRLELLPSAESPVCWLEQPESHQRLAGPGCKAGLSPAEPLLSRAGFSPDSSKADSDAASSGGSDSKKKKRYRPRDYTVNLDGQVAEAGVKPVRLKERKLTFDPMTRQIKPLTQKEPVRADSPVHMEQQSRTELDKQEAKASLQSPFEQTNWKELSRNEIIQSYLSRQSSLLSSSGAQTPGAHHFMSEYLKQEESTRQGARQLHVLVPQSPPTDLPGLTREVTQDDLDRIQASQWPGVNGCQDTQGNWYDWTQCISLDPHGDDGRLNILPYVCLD
The test is described as follows: co-IP.

Drawing on paper doi:10.1101/2024.08.26.609654, this text covers binding for one substance.

No constants are given. Whether binding was seen depends on the method and setting. In cells and extracts the contact can be indirect. Binding can be weak; no strength is given. Sequences can lack the tags named with a protein.

For NELF-D (human (endogenous in HEK293)), the binding result is recorded as “binds”.
